Tested on: mouse model of abdominal wall lymphedema
Test: Mouse model of abdominal wall lymphedema, thickness of the skin section (wild-type mouse)
Assay type: in vivo, C57BL/6J mouse
Details: C57BL/6J mice; combined results of Experiments 2 and 3; pitavastatin 1 mg/kg/day, atorvastatin 2.5 or 1 mg/kg/day, pravastatin 1 mg/kg/day oral; after seven days; FIG. 2
Description: A male C57BL/6J mouse and a male eNOS-deficient mouse having a genetic background of C57BL/6J, both of which are eight weeks old at the time of surgery, each receives an intraperitoneal injection of Nembutal at 60 mg/kg, and further receives a subcutaneous injection of 1% Evans blue for identification of lymph nodes and lymphatic vessels in the dorsum of the right foot, the back of the hand, and the buttocks in an amount of 0.05 mL at each site. The abdominal hair was removed and the abdominal skin is incised in an open-door fashion so as to identify the inguinal lymph nodes, axillary lymph nodes, and lymphatic vessels connecting these lymph nodes in the right abdominal wall. The lymphatic vessels are ligated at two to three sites near the axillary lymph nodes, followed by excision of the axillary lymph nodes. Subsequently, the skin is sutured, whereby the surgery is completed. On the seventh day after the surgery, the abdominal skin is once again incised in an open-door fashion to collect the abdominal wall tissues. The mice were orally administered with the statins dissolved in distilled water (250 μl) from three days before to seven days after the surgery once a day. […] Methanol-fixed paraffin-embedded tissue sections were stained with hematoxylin, and the thickness of the skin section prepared from the upper inguinal area, which is the lowermost part of a mouse, was measured. […]

CC(C)c1c(C(=O)Nc2ccccc2)c(-c2ccccc2)c(-c2ccc(F)cc2)n1CC[C@@H](O)C[C@@H](O)CC(=O)O [atorvastatin, (3R,5R)-7-[2-(4-fluorophenyl)-5-isopropyl-3-phenyl-4-phenylcarbamoyl-1H-pyrrol-1-yl]-3,5-dihydroxyheptanoic acid]
lymphedema (thickness of the skin): markedly inhibit
